# PubChem BioAssay AID1259266, Sanger Institute | 2017
# Assay: 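Essential genes and drug synergy among kinases and colorectal-mutated genes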 (primary screen)
# Cells: LS123 human colorectal cancer cells
# Reagents: siRNA pool against human genes
# Challenge: anchor drugs BYL719 (1 µM), cetuximab (5 µg/ml) or trametinib (10 nM), each chosen to barely slow growth alone; DMSO vehicle as the drug-free arm
# Read-out: 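Viability relative to non-targeting control pools, replicate mean, with a robust z-score for knock-down alone and synergy scores for each anchor drug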
# Direction: robust z-score, knock-down alone: higher = more cells surviving after knock-down; viability, knock-down alone: higher = more viable cells; synergy score with trametinib and synergy score with BYL719 and synergy score with cetuximab: higher = stronger synthetic lethality with drug
# Call rule: 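Essential when the robust z-score of the knock-down alone is below -3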
# Meaning of the calls: active = essential (knock-down alone cuts viability); inactive = no change
# The deposit covers 794 reagents; this is an unselected part. Of all reagents, 16 (2%) are marked active. 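Calls reflect knock-down alone, not drug synergy; viability seems capped at 1 and z-scores at 0.585.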 Unmarked entries are inactive. Reagent sequences are not shown. Not stated in the record: the amount of reagent, the time to read-out.
The opening 2 records as a preview:
target gene,"robust z-score, knock-down alone","viability, knock-down alone (fraction of control)",synergy score with trametinib,synergy score with BYL719,synergy score with cetuximab
CDC42BPB,0.585,1,0.0031,-0.0406,-0.0122
WEE1,-7.53 (active),0.518,-0.0408,-0.0188,0.0718

The listing, from the start:
target gene,"robust z-score, knock-down alone","viability, knock-down alone (fraction of control)",synergy score with trametinib,synergy score with BYL719,synergy score with cetuximab
CDC42BPB,0.585,1,0.0031,-0.0406,-0.0122
WEE1,-7.53 (active),0.518,-0.0408,-0.0188,0.0718
STRADA,0.585,1,-0.128,-0.149,-0.0122
STK11,0.177,0.976,0.0981,-0.0287,-0.0361
MAPKAPK5,-0.245,0.951,-0.0266,-0.108,-0.00609
PIM2,0.418,0.99,-0.0371,-0.0748,0.027
NPR2,0.29,0.982,-0.0697,-0.139,-0.0181
CLK3,-0.418,0.94,-0.0792,0.0256,0.0527
MAP3K11,-0.391,0.942,-0.145,-0.0374,-0.00949
IRAK4,0.585,1,-0.0743,-0.0542,-0.0122
CDK15,0.551,0.998,-0.0903,-0.0244,0.0198
CSNK1A1,0.128,0.973,-0.0251,-0.118,-0.039
DAPK3,-0.188,0.954,-0.0304,-0.104,-0.0431
STK40,0.521,0.996,-0.133,-0.0345,0.00943
NEK4,-0.905,0.912,-0.112,-0.0373,0.0109
HK3,0.585,1,-0.186,-0.159,-0.0122
CDKN1C,0.585,1,-0.0635,-0.11,-0.0122
PIK3C2A,-3,0.787,-0.0467,-0.137,0.0252
BCKDK,0.585,1,-0.0592,-0.108,-0.0122
CDK19,0.569,0.999,-0.0803,-0.0901,-0.0132
ALDH18A1,0.585,1,0.00886,-0.0834,-0.0122
PFKFB2,-0.879,0.913,-0.0467,-0.0643,0.0318
CDC42BPA,0.292,0.983,0.00757,-0.0196,0.0789
PRKAG2,0.585,1,-0.132,-0.159,-0.0122
PLK4,-0.211,0.953,-0.0603,-0.0054,0.0504
PRKCD,0.585,1,-0.0632,-0.0993,-0.0122
LRRK2,0.585,1,-0.0192,-0.065,-0.00589
CDK20,-1.3,0.888,0.0512,0.0502,0.0981
CRIM1,0.585,1,-0.142,-0.159,-0.0122
FYN,0.585,1,0.00597,-0.0654,-0.0122
ULK3,0.585,1,-0.131,-0.149,-0.0122
PAK4,0.585,1,0.00224,0.0254,-0.0122
FLT1,0.585,1,-0.111,-0.159,-0.0122
CDKL1,0.585,1,0.0561,-0.0825,-0.0122
CKM,0.585,1,-0.0124,-0.0294,0.0092
CASK,-1.02,0.905,0.039,-0.0148,0.0545
PIP5K1A,-0.83,0.916,-0.0713,-0.0596,0.0132
STKLD1,0.428,0.991,0.0608,0.0361,0.0701
CIB2,-0.306,0.947,-0.0326,-0.0906,0.0701
ITPKB,0.585,1,-0.186,-0.159,-0.0122
ERN2,0.585,1,-0.0733,-0.0847,0.0356
RUNX1,0.31,0.984,-0.041,-0.0797,0.0289
IKBKE,0.585,1,-0.122,-0.159,-0.0122
EPHA5,0.585,1,-0.0621,-0.0899,-0.0122
GALK2,-0.402,0.941,-0.0345,-0.0435,0.00213
PIP4K2A,0.585,1,-0.13,-0.159,-0.0122
PTK2,-0.79,0.918,-0.061,-0.0837,0.0793
ACVR2A,0.585,1,-0.0844,-0.0781,0.00156
ULK1,0.585,1,-0.0129,-0.0788,-0.0122
HK2,-1.81,0.858,-0.101,-0.121,0.00613
